The target of the test is amino-terminally FLAG-tagged human p75 (human) (UniProt P08138). Nature of the test: p75 precipitated from transfected 293T cells, incubated with the RhoA-Rho GDI complex.

Chains of the proteins cited; added tags and fusions are not shown. Lines headed by an entry give the natural chain unless they say otherwise; changes in a name come on top.
UniProt P08138: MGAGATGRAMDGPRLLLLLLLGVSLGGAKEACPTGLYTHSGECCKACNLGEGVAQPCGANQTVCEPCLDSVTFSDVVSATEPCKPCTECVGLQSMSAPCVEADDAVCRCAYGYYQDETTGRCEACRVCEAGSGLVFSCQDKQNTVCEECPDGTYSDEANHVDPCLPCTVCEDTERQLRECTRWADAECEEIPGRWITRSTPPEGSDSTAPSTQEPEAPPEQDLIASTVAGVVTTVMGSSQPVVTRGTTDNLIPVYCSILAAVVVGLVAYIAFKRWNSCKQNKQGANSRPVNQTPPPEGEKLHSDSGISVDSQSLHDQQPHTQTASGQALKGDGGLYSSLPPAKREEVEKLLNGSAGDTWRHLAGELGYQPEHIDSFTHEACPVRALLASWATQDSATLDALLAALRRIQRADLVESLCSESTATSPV

These are yes or no findings as the source states them, for the method shown. Some results given as binding are weak or reduced against the parent protein; the word gives no strength.

This passage reports binding results from patent US20040191240A1, “Composition and method for nerve regeneration” (priority 2003, published 2004).

In the case of “prenylated RhoA complexed with Rho GDI (from UniProt P24406 1-190; P52565 1-204)”, the binding entry was “binds”.
